The supplement of paper PMC10849652
This is one part of the list.

Sequences of proteins named here, by UniProt entry; tags and fusion partners are left off. A change or cut given only in a name is not applied to a line headed by its entry.
UniProt P49914: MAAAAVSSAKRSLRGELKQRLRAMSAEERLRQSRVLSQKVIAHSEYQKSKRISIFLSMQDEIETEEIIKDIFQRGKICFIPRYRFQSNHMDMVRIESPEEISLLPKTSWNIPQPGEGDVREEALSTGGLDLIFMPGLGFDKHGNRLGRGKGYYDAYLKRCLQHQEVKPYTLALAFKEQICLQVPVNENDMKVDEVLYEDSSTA
UniProt Q9HD23: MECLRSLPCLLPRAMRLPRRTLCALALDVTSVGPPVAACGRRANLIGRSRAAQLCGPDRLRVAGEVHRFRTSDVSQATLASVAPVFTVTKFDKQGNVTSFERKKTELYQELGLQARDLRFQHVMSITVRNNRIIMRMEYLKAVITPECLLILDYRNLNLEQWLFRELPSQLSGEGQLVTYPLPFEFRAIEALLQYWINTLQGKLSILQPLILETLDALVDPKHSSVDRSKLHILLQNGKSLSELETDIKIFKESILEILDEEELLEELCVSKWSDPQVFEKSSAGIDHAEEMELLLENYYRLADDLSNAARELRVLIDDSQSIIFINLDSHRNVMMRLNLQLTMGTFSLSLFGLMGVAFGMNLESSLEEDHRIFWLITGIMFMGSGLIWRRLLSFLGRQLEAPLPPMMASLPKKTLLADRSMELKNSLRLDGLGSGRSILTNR
UniProt Q9ULH7: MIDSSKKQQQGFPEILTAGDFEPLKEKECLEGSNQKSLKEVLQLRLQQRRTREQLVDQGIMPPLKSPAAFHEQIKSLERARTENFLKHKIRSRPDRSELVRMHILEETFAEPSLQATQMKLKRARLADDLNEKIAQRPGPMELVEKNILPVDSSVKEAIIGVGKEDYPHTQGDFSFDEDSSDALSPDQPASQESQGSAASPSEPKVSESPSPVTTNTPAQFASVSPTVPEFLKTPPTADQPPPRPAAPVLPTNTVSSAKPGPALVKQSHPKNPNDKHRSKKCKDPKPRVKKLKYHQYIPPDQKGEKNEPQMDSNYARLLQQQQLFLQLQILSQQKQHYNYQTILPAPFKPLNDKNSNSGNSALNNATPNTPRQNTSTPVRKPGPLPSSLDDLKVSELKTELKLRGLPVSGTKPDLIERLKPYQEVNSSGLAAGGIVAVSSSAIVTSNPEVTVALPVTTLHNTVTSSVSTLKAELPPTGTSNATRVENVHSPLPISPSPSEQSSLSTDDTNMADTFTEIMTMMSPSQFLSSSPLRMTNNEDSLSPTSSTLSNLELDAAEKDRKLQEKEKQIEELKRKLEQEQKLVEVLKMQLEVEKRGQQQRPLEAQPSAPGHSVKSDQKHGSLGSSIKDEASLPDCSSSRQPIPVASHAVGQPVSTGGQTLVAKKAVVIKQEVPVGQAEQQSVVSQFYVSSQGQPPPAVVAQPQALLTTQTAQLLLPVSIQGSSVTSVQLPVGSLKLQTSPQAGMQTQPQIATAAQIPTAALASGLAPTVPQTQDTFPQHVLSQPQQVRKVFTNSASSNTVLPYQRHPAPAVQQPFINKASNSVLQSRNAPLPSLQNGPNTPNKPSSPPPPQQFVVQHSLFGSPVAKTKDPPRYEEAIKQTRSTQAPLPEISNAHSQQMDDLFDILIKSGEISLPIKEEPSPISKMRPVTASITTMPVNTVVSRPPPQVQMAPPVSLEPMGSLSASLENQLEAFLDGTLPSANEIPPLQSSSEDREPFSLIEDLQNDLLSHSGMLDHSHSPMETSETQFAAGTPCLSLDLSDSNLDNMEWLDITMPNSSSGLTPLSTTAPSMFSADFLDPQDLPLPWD
UniProt Q13505: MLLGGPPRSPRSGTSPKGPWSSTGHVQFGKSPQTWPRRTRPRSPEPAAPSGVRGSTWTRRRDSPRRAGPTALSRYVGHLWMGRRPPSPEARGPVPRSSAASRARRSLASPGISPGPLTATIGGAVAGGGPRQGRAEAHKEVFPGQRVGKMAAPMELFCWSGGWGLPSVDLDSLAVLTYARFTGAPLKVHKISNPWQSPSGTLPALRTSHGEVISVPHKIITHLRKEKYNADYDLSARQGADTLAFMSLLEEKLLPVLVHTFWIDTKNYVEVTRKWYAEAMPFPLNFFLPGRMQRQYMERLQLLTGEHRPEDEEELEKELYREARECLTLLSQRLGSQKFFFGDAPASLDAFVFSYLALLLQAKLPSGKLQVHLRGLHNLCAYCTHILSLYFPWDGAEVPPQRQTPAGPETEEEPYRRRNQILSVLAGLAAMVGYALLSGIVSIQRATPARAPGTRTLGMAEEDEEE
UniProt Q15800: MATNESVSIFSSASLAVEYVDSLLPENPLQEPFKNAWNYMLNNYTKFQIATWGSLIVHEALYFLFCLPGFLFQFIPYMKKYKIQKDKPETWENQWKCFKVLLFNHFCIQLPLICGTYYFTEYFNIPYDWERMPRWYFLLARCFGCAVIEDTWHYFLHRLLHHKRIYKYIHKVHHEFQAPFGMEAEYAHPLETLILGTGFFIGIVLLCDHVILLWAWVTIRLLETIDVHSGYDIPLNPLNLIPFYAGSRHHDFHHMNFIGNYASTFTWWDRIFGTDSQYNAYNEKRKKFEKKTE
UniProt Q13496: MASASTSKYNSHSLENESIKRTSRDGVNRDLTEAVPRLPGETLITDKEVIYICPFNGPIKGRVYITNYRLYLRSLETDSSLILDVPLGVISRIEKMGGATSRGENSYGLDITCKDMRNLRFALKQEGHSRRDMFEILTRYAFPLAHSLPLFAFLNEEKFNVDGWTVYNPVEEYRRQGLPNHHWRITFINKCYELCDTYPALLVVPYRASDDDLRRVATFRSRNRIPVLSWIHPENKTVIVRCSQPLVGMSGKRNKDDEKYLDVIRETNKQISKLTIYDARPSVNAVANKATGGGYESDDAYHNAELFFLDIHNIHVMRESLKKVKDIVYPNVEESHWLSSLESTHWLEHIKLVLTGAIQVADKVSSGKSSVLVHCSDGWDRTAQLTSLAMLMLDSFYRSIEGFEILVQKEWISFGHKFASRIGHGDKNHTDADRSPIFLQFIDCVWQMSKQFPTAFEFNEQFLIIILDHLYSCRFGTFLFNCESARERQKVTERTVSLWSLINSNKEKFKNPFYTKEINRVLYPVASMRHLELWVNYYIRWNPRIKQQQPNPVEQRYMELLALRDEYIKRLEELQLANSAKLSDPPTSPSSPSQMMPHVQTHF
UniProt P03891, whole entry, looked up: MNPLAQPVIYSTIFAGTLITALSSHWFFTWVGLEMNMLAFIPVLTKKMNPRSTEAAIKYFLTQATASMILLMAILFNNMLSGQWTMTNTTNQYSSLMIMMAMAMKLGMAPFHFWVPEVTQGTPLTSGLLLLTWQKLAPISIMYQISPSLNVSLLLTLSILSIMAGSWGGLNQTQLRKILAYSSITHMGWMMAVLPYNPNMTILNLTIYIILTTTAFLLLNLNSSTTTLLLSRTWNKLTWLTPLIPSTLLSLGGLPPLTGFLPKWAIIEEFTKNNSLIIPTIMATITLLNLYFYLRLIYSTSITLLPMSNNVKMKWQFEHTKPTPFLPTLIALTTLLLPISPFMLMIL

Columns and labels:
Experiment in all cases: log2 fold change, soluble protein after heating vs DMSO (PISA); higher = thermal stabilisation; K562 lysate, 10 uM; active = over 0.2 and 3.5 SD of the protein, either way, in both replicates (recomputed)
[1] = compound: CCCS(=O)(=O)Nc1ccc(F)c(C(=O)c2c[nH]c3ncc(-c4ccc(Cl)cc4)cc23)c1F [vemurafenib]
In short: (§1)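 Dounce homogenisation of K562 pellets in PBS pH 7.4 with 1 mM MgCl2 produced a crude extract, used at 1 mg/mL protein. Exposure to 10 μM compound lasted 30 min, and aliquots were then heated for 3 min across 48°C-58°C, pooled and brought to 0.5% NP-40 at 4°C. The supernatant after 21,000xg for 90 min was quantified by TMTpro 16plex LC-MS/MS with channel sums equalised. Duplicate values are given as log-two fold change in thermal stability relative to solvent controls.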

[2] = compound: CCCS(=O)(=O)Nc1ccc(F)c(C(=O)c2c[nH]c3ncc(Cl)cc23)c1F
In short: as §1

[3] = compound: CCN(CCCOc1ccc2c(Nc3cc(CC(=O)Nc4cccc(F)c4)[nH]n3)ncnc2c1)CCOP(=O)(O)O [barasertib]
In short: as §1

[4] = compound: CC[C@@H]1C(=O)N(C)c2cnc(Nc3ccc(C(=O)NC4CCN(C)CC4)cc3OC)nc2N1C1CCCC1
In short: as §1

[5] = compound: CC[C@@H]1C(=O)N(C)c2cnc(Nc3ccc(C(=O)N[C@H]4CC[C@H](N5CCN(CC6CC6)CC5)CC4)cc3OC)nc2N1C(C)C [volasertib]
In short: as §1

[6] = compound: CCn1c(C(=O)N(C2CC2)C2CC2)cc2c3c(ncn3C)c(Nc3cc(C)n(C)n3)nc21
In short: as §1

[7] = compound: CCn1cc(-c2ccnc3[nH]c(-c4cccc(CN(C)C)c4)cc23)c(-c2ccc(NC(=O)N(C)C)cc2)n1
In short: as §1

[8] = compound: CN1CCC(CNc2ccc3ncc(-c4cccc(OC(F)(F)F)c4)n3n2)CC1
In short: as §1

[9] = compound: CN1CCN(CCOc2cc(OC3CCOCC3)c3c(Nc4c(Cl)ccc5c4OCO5)ncnc3c2)CC1 [saracatinib]
In short: as §1

[10] = compound: CN1CCN(c2nc(C3=C(c4c[nH]c5ccccc45)C(=O)NC3=O)c3ccccc3n2)CC1 [sotrastaurin]
In short: as §1

[11] = compound: CN1CC[C@H](c2c(O)cc(O)c3c(=O)cc(-c4ccccc4Cl)oc23)[C@H](O)C1 [alvocidib]
In short: as §1

[12] = compound: CN1CCc2c(c3ccccc3n2Cc2ccc(C(=O)NO)cc2)C1 [Tubastatin A]
In short: as §1

[13] = compound: CNC(=O)C1=CC=CC=C1NC2=NC(=NC=C2Cl)NC3=C(C=C(C=C3)N4CCOCC4)OC
In short: as §1

[14] = compound: CNC(=O)c1ccc(Nc2ncc(C(F)(F)F)c(NCc3nccnc3N(C)S(C)(=O)=O)n2)cc1 [defactinib]
In short: as §1

[15] = compound: CNc1nc(-c2ccc3c(N)n[nH]c3c2)cc(N2C[C@@H](C(=O)NC3CCCCC3)CC[C@H]2C)n1
In short: as §1

[16] = compound: COC(=O)N[C@@H](C)CNc1nccc(-c2cn(C(C)C)nc2-c2cc(Cl)cc(NS(C)(=O)=O)c2F)n1 [encorafenib]
In short: as §1

[17] = compound: COC(=O)[C@H](CCSC)NC(=O)C1=C(C=C(C=C1)NC[C@H](CS)N)C2=CC=CC=C2
In short: as §1

[18] = compound: COc1cc(Nc2ncc3c(n2)-c2ccc(Cl)cc2C(c2c(F)cccc2OC)=NC3)ccc1C(=O)O [alisertib]
In short: as §1

[19] = compound: COc1cc2nc(-c3cc(F)ccc3O)nc(N[C@@H]3CNC[C@H]3C(C)(C)O)c2cc1OC
In short: as §1

[20] = compound: COc1cc2ncnc(Nc3ccc(F)c(Cl)c3)c2cc1OCCCN1CCOCC1 [gefitinib]
In short: as §1

Measured: log2 fold change

MRPL52 (UniProt Q86TS9)
inactive: [1] -0.133 | [2] 0.041 | [3] 0.016 | [4] 0.074 | [5] -0.037 | [6] -0.047 | [7] -0.064 | [8] 0.131 | [9] 0 | [10] -0.106 | [11] -0.146 | [12] 0.003 | [13] -0.034 | [14] 0.08 | [15] 0.092 | [16] -0.031 | [17] 0.019 | [18] -0.019 | [19] -0.092 | [20] 0.032

MTHFS (UniProt P49914)
inactive: [1] 0.066 | [2] 0.006 | [3] -0.075 | [4] 0.004 | [5] -0.02 | [6] -0.113 | [7] -0.037 | [8] -0.017 | [9] -0.015 | [10] 0.133 | [11] -0.013 | [12] -0.045 | [13] 0 | [14] 0 | [15] -0.019 | [16] -0.005 | [17] 0.111 | [18] -0.017 | [19] 0.006 | [20] -0.011

MRPL28 (UniProt Q13084)
active: [7] 0.411
inactive: [1] 0.005 | [2] 0.009 | [3] 0.053 | [4] -0.06 | [5] 0.019 | [6] 0.024 | [8] -0.356 | [9] -0.016 | [10] 0.055 | [11] 0.261 | [12] -0.074 | [13] -0.11 | [14] 0.039 | [15] 0.001 | [16] 0.026 | [17] -0.026 | [18] 0.045 | [19] -0.02 | [20] 0.072

MRPS5 (UniProt P82675)
inactive: [1] -0.078 | [2] 0.017 | [3] 0.01 | [4] -0.074 | [5] -0.02 | [6] -0.027 | [7] 0.041 | [8] -0.017 | [9] -0.041 | [10] 0.032 | [11] 0.004 | [12] 0.031 | [13] 0.036 | [14] 0.089 | [15] 0.002 | [16] -0.021 | [17] 0.081 | [18] 0.007 | [19] -0.014 | [20] -0.005

MTMR1 (UniProt Q13613)
inactive: [1] 0.064 | [2] 0.065 | [3] 0.013 | [4] 0.018 | [5] -0.078 | [6] 0.03 | [7] 0.07 | [8] -0.076 | [9] 0.001 | [10] -0.015 | [11] -0.031 | [12] -0.064 | [13] -0.015 | [14] 0.015 | [15] -0.022 | [16] 0.019 | [17] 0.098 | [18] 0.032 | [19] -0.008 | [20] 0.014

MRS2 (UniProt Q9HD23)
inactive: [1] -0.028 | [2] -0.005 | [3] 0.01 | [4] -0.026 | [5] 0.001 | [6] 0.015 | [7] 0.023 | [8] 0.074 | [9] 0.002 | [10] 0.037 | [11] -0.017 | [12] 0.005 | [13] 0.012 | [14] -0.013 | [15] -0.039 | [16] 0.022 | [17] -0.062 | [18] -0.022 | [19] -0.004 | [20] 0.024

MRTFB isoform 5 (UniProt Q9ULH7)
inactive: [1] -0.025 | [2] 0.036 | [3] -0.042 | [4] 0.028 | [5] -0.096 | [6] -0.023 | [7] -0.004 | [8] -0.049 | [9] 0.03 | [10] -0.016 | [11] -0.027 | [12] -0.077 | [13] 0.035 | [14] 0.014 | [15] 0.051 | [16] -0.001 | [17] -0.049 | [18] 0.006 | [19] 0.02 | [20] -0.003

MRPL45 (UniProt Q9BRJ2)
inactive: [1] 0.064 | [2] -0.021 | [3] 0.088 | [4] -0.025 | [5] -0.002 | [6] -0.001 | [7] -0.006 | [8] -0.1 | [9] 0.008 | [10] -0.032 | [11] 0.005 | [12] -0.075 | [13] 0.021 | [14] -0.022 | [15] -0.001 | [16] 0 | [17] 0.102 | [18] 0.017 | [19] 0.027 | [20] -0.077

MTX1 (UniProt Q13505)
inactive: [1] 0.036 | [2] 0.011 | [3] 0.057 | [4] 0.007 | [5] -0.005 | [6] -0.039 | [7] -0.049 | [8] 0.06 | [9] -0.009 | [10] 0.006 | [11] -0.008 | [12] 0.057 | [13] 0.006 | [14] -0.048 | [15] 0.028 | [16] 0.005 | [17] -0.023 | [18] -0.015 | [19] 0.062 | [20] -0.005

MRPS11 (UniProt P82912)
inactive: [1] -0.062 | [2] 0.05 | [3] 0.043 | [4] -0.128 | [5] 0.101 | [6] -0.029 | [7] -0.035 | [8] -0.021 | [9] 0.103 | [10] 0.029 | [11] -0.063 | [12] -0.002 | [13] 0.031 | [14] -0.008 | [15] -0.061 | [16] 0.081 | [17] -0.213 | [18] 0.136 | [19] -0.019 | [20] -0.016

2 successive records already listed:
MRTFB isoform 5 (UniProt Q9ULH7)
inactive: [1] -0.025 | [2] 0.036 | [3] -0.042 | [4] 0.028 | [5] -0.096 | [6] -0.023 | [7] -0.004 | [8] -0.049 | [9] 0.03 | [10] -0.016 | [11] -0.027 | [12] -0.077 | [13] 0.035 | [14] 0.014 | [15] 0.051 | [16] -0.001 | [17] -0.049 | [18] 0.006 | [19] 0.02 | [20] -0.003

MRPL45 (UniProt Q9BRJ2)
inactive: [1] 0.064 | [2] -0.021 | [3] 0.088 | [4] -0.025 | [5] -0.002 | [6] -0.001 | [7] -0.006 | [8] -0.1 | [9] 0.008 | [10] -0.032 | [11] 0.005 | [12] -0.075 | [13] 0.021 | [14] -0.022 | [15] -0.001 | [16] 0 | [17] 0.102 | [18] 0.017 | [19] 0.027 | [20] -0.077

(cont.)

MSMO1 (UniProt Q15800)
inactive: [1] 0.031 | [2] 0 | [3] -0.079 | [4] 0.059 | [5] 0.022 | [6] -0.038 | [7] -0.063 | [8] 0.069 | [9] -0.003 | [10] 0.027 | [11] -0.098 | [12] -0.03 | [13] 0.073 | [14] -0.085 | [15] 0.015 | [16] 0.023 | [17] -0.053 | [18] -0.099 | [19] 0.008 | [20] 0.025

MTM1 (UniProt Q13496)
inactive: [1] -0.012 | [2] 0.012 | [3] 0.027 | [4] 0.015 | [5] 0.001 | [6] -0.005 | [7] -0.074 | [8] -0.004 | [9] -0.026 | [10] 0.012 | [11] -0.029 | [12] 0.013 | [13] 0.027 | [14] -0.007 | [15] 0.058 | [16] 0.005 | [17] 0.016 | [18] 0 | [19] 0.015 | [20] -0.038

MRPL42 (UniProt Q9Y6G3)
inactive: [1] -0.018 | [2] 0.007 | [3] -0.057 | [4] -0.119 | [5] 0.015 | [6] -0.004 | [7] 0.015 | [8] 0.015 | [9] 0.009 | [10] 0.008 | [11] -0.044 | [12] 0.062 | [13] 0.23 | [14] -0.111 | [15] 0.057 | [16] 0.102 | [17] 0.248 | [18] -0.007 | [19] -0.028 | [20] -0.008

MRPL46 (UniProt Q9H2W6)
inactive: [1] 0.058 | [2] -0.001 | [3] -0.015 | [4] 0.115 | [5] 0.044 | [6] 0.064 | [8] -0.029 | [9] 0.024 | [10] 0.032 | [11] 0.125 | [12] -0.097 | [13] 0.28 | [14] 0.051 | [15] 0.058 | [16] -0.032 | [17] 0 | [18] 0.02 | [19] -0.045 | [20] 0.041
active: [7] 0.523

MRPL58 (UniProt Q14197)
inactive: [1] 0.104 | [2] -0.017 | [3] 0.033 | [4] -0.033 | [5] -0.043 | [6] 0.004 | [7] 0.148 | [8] -0.151 | [9] 0.04 | [10] 0.019 | [11] 0 | [12] -0.065 | [13] 0.027 | [14] -0.045 | [15] 0.033 | [16] 0.011 | [17] -0.078 | [18] -0.021 | [19] -0.02 | [20] -0.04

MT-ND2 (UniProt P03891)
inactive: [1] -0.097 | [2] 0.015 | [3] -0.035 | [4] -0.157 | [5] -0.008 | [6] 0.068 | [7] -0.12 | [8] -0.054 | [9] 0.04 | [10] -0.073 | [11] 0.054 | [12] 0.059 | [13] 0.037 | [14] 0.107 | [15] -0.132 | [16] 0.034 | [17] -0.063 | [18] 0 | [19] -0.036 | [20] -0.018
